Results taken from article PMC5570908.
Results are given in words; binding and its absence hold for the method and conditions named. In cells and extracts the contact can be indirect. Some binding calls cover weakened binding; strength is not graded here.

Amino acid sequences for entries named in this document (tags omitted).
UniProt P84022: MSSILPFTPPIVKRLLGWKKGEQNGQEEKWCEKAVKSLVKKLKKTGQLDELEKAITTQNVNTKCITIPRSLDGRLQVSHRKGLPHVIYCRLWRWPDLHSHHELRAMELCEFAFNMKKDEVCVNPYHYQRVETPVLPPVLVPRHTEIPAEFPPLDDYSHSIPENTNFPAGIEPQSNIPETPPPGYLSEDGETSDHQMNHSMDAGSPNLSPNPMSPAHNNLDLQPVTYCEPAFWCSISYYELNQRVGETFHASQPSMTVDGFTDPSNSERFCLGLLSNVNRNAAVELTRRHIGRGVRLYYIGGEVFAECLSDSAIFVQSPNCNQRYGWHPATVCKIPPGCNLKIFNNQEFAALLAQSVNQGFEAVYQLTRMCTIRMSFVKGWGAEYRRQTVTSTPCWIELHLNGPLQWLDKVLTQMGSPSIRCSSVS
UniProt Q9HAU4: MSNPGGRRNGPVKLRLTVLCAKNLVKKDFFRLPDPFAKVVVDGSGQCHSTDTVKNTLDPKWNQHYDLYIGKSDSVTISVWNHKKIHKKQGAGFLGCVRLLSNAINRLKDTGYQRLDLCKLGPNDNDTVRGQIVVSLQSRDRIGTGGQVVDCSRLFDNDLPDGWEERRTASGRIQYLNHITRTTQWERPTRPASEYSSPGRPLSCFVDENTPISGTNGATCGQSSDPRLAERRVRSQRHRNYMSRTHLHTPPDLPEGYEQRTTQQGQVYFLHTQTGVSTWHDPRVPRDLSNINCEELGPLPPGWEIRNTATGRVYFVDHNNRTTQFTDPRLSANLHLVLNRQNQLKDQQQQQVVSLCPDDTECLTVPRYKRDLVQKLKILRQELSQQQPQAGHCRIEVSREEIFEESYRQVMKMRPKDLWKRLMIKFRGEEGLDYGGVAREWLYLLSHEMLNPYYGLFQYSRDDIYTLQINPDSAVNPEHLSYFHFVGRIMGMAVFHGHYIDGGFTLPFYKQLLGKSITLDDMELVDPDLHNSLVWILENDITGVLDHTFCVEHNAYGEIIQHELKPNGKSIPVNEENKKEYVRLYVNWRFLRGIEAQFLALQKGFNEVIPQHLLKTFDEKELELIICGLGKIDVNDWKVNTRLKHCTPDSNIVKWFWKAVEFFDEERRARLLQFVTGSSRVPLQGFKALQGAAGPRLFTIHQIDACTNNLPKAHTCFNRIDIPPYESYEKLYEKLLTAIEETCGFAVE

Target: Myc-Smad3 (UniProt P84022)
Assay: co-IP; MDA-MB-231 cells transfected with Flag-Smurf1 and Myc-Smad3; MG132 (20 µM) for 8 h before harvest; HEPES lysis buffer (20 mM HEPES pH 7.2, 50 mM NaCl, 0.5% Triton X-100, 1 mM NaF, 1 mM dithiothreitol); antibody 3 h at 4 °C, protein A/G-plus agarose; western blot (anti-Myc-HRP to detect Smad3)

binding: binds
Substance: Smurf2 (from UniProt Q9HAU4 1-748) (enzyme)
